This passage reports AC50 results from PubChem BioAssay AID493014 (National Center for Advancing Translational Sciences (NCATS), 2011).

Some of the results follow. These are further read-outs of the screen, such as a control signal, another cell line or another target. No call is given for them. Most of these compounds were active or inconclusive in the main read-out, so they are no random draw. Potencies come from curve fits of mixed quality, noted in brackets.

A short description of the test: qHTS Assay to Find Inhibitors of Chronic Active B-Cell Receptor Signaling. The following applies: ABC-DLBCL IkBa-CBG/CBR reporter, luminescence ratio (green luciferase fused to IkBa over red control in TMD8 lymphoma cells), 4 h. The procedure, abridged: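 Compounds up to 46 uM were incubated four hours with TMD8 cells whose green CBG68 luciferase is fused to IkappaBalpha; red CBR luminescence normalised the signal, and concentration-effect curves were fitted to fusion, red and ratio data.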
A general note: qHTS replaces the single test concentration by a dilution series.

Where [1] appears, read: measured here: CBR red luminescence, cell number.
[2] abbreviates: measured here: IkBa-CBG green luminescence.

What is called AC50 is the midpoint of the concentration-response curve, whichever way the signal moves. As for `Cc1ccccc1Nc1c(N)c(=O)oc2ccccc12`, the AC50 runs as follows: under setting [1], 13 µM [rising, partial curve, poor fit]; under setting [2], 10.3 µM [falling, partial curve]. In the case of `COc1ccc(C(c2c(NC(=O)c3ccccc3)sc(C)c2C)N2CCN(CCO)CC2)cc1` (stereo not drawn), the AC50 under setting [1] was 18.4 µM [falling, partial curve]. Consider `CCCn1nnc(NC(=O)c2cccc(OCC(C)C)c2)n1`, for which the AC50 under setting [1] was 35.5 µM [falling, single point]. Still for that read-out and setting: then `CN1c2ccccc2C(C)(C)C12CCCC(=O)N2` (stereo not drawn), with 3.98 µM [falling, partial curve, poor fit]; and `Cc1cc2c(c(C)c1CCO)C(=O)[C@H](C)C2`, with 0.231 µM [falling, partial curve, poor fit].

Take `Cn1nc(/C=C/c2ccccc2)ccc1=O`: the AC50 under setting [1] is 14.1 µM [rising, single point].

As for `Cc1cc(C)cc(NC(=O)CN2CCCN(S(=O)(=O)c3ccc(Br)s3)CC2)c1`, the AC50 under setting [1] was 2.91 µM [falling, full curve, poor fit]. For the compound `CCOC(=O)C(=CNc1cc(Cl)c(-c2ccco2)c(Cl)c1)C(=O)OCC`, the AC50 under setting [1] was 31.6 µM [falling, single point].

As to `O=S(=O)(c1ccc(F)cc1)N1CN(Cc2ccco2)c2nc3ccccc3nc21`, the AC50 under setting [1] was 32.6 µM [falling, single point]. The same measure, in the same setting: the value for `Cc1c(O)nc(SCC(=O)Nc2cccc(C(F)(F)F)c2)n(-c2ccccc2)c1=O` was 11.2 µM [falling, partial curve, poor fit]; that for `CCc1ccc(CN(C)C(=O)c2cc(COc3cccc4cnccc34)on2)cc1` was 10 µM [falling, partial curve]. With `Cc1ccc(-c2nn(-c3ccccc3)cc2/C=C/C(=O)Nc2nccs2)cc1`, under setting [1], the AC50 is 5.17 µM [falling, partial curve, poor fit]. For the compound `Cc1cc(-c2n[nH]c(=S)n2/N=C/c2cc([N+](=O)[O-])ccc2Cl)n[nH]1`, the AC50 runs as follows: under setting [1], 25.9 µM [falling, single point]; under setting [2], 29.1 µM [falling, single point].

Take `O=C(CCc1ccccc1)Nc1ccc(N2CCOCC2)c(Cl)c1`: under setting [1], the AC50 was 1.46 µM [rising, full curve]. As for `Cc1ccc(O)c(C(=O)c2coc(=N)c(C(=O)NC(C)C)c2)c1`, under setting [1], the AC50 is 0.103 µM [falling, full curve, poor fit].

As for `CCOC(=O)c1c(C)[nH]c(C(=O)CSc2nnnn2-c2ccc(C)cc2)c1C`, the AC50 under setting [1] is 16.4 µM [rising, single point].

Take `CCCC/C=C1\CCc2c([nH]c3ccccc23)C1=O`: the AC50 under setting [1] is 35.5 µM [falling, single point]. As to `Cc1cc(OC(C)C(=O)N/N=C/CC(C)c2ccccc2)ccc1Cl` (stereo not drawn), the AC50 under setting [1] was 23.1 µM [rising, single point]. For `CCCCn1c(=S)[nH]c2c(oc3ccc(Cl)cc32)c1=O`, under setting [1], the AC50 is 1.84 µM [falling, full curve]. Take `CCC(Oc1ccccc1)C(=O)Nc1ccccc1N1CCCC1` (stereo not drawn): the AC50 under setting [1] is 35.5 µM [rising, single point]. With `Cc1cccc2sc(NNC(=O)c3cc(-c4cccs4)nc4ccccc34)nc12`, under setting [1], the AC50 is 3.66 µM [rising, single point].

Turning to `O=C(NCC1CCCCC1)c1cccc(-c2ccc(O)cc2)c1`, the AC50 under setting [1] is 35.5 µM [falling, single point]. For the compound `NS(=O)(=O)c1cccc(NS(=O)(=O)c2ccc(/C=C/C(=O)OCC(=O)c3ccc(Br)cc3)cc2)c1`, the AC50 under setting [1] was 31.6 µM [falling, single point].

For `CCn1c(=O)c(C(=O)NNC(=O)c2cccc(Cl)c2)c(O)c2ccccc21`, the AC50 under setting [1] is 5.01 µM [falling, full curve]. Turning to `Cc1ccc(-n2ncc3c(N(C)C)ncnc32)cc1Cl`, the AC50 under setting [1] is 0.794 µM [rising, full curve, poor fit]. In the case of `COc1ccc(-n2c(Cc3cccn3C)nnc2SCC(=O)NCc2ccccc2Cl)cc1`, the AC50 under setting [1] is 25.9 µM [falling, partial curve, poor fit]. Same read-out and setting: then `O=C(NC1CCCC1)c1ccc(Br)c(S(=O)(=O)N2CCCCC2)c1`, with 35.5 µM [rising, single point]; and `CC(=O)Nc1cccc(NC(=O)c2ccc3c(c2)CCN3S(C)(=O)=O)c1`, with 5.62 µM [falling, partial curve, poor fit]; and `O=C(CSc1nnc(-c2ccc(F)cc2)c2ccccc12)Nc1ccccc1Cl`, with 20.6 µM [falling, single point]. Consider `CCOc1ncccc1C(=O)Nc1cccc(-c2nnc3n2CCCCC3)c1`, for which the AC50 under setting [1] is 14.1 µM [falling, partial curve, poor fit]. Take `CCc1nc2ccccc2c(C(=O)OCC(=O)Nc2ccc(NC(C)=O)cc2)c1C`: under setting [1], the AC50 is 23.1 µM [falling, single point]. On to `COc1ccc(NC(=O)C(=O)Nc2cccc3ccccc23)c(OC)c1`, for which the AC50 under setting [1] is 0.794 µM [falling, full curve]. Regarding `O=C(NNC(=S)Nc1ccccc1)c1ccc(O)cc1`, the AC50 under setting [1] is 7.08 µM [falling, full curve].

Take `CN1CCc2c(sc(NC(=O)c3ccc([N+](=O)[O-])o3)c2C(N)=O)C1`: the AC50 under setting [1] was 0.447 µM [rising, full curve]. On to `Cc1ccc(S(=O)(=O)NNC(=O)c2sc3nc(C)cc(C)c3c2-n2cccc2)cc1`, for which the AC50 under setting [1] was 16.4 µM [falling, partial curve, poor fit]. On to `C=CCn1c(=O)c2c(C)c(C)sc2n2c(Nc3ccc(OC)cc3)nnc12`, for which the AC50 under setting [1] is 3.16 µM [falling, single point]. Consider `Brc1ccc(-c2nnc(-c3ccco3)o2)cc1`, for which the AC50 under setting [1] was 0.178 µM [rising, full curve, poor fit]. Turning to `Cc1ccc(N(C(=O)c2csnn2)C(C(=O)NC2CCCCC2)c2ccco2)cc1` (stereo not drawn), the AC50 under setting [1] was 3.98 µM [falling, partial curve, poor fit]. Take `CN(CC(=O)Nc1ccc(Cl)c(C(F)(F)F)c1)C(=O)C1(c2ccccc2)CC1`: the AC50 under setting [1] is 16.4 µM [falling, single point] and the AC50 under setting [2] was 25.9 µM [rising, partial curve, poor fit]. With `Cc1cc(C)cc(Oc2nc3ccccn3c(=O)c2/C=C(\C#N)C(=O)NC2CCS(=O)(=O)C2)c1` (stereo not drawn), under setting [1], the AC50 was 22.4 µM [falling, partial curve, poor fit].
